Reference: the supplement of paper PMC12823440, “Inhibitors supercharge kinase turnover through native proteolytic circuits” (Nature, 2025)
Structures can show the parent of a compound that is named as a salt. This is one part of the list. Hit calls seldom repeat between salt and free forms of one compound.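 Kinases were expressed as nanoluciferase fusions in K562 cells and luminescence was read every 4 h between 2 and 18 h as percent of control, DMSO set to 100% and a positive control to 0%. A time point counts as decreased when the signal drops significantly (2 sigma). The hit call is the authors' own, does not follow from the count of time points alone, and its rule is not shown.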

Chains of the proteins cited; added tags and fusions are not shown. Lines headed by an entry give the natural chain unless they say otherwise; changes in a name come on top.
UniProt P31152, whole entry: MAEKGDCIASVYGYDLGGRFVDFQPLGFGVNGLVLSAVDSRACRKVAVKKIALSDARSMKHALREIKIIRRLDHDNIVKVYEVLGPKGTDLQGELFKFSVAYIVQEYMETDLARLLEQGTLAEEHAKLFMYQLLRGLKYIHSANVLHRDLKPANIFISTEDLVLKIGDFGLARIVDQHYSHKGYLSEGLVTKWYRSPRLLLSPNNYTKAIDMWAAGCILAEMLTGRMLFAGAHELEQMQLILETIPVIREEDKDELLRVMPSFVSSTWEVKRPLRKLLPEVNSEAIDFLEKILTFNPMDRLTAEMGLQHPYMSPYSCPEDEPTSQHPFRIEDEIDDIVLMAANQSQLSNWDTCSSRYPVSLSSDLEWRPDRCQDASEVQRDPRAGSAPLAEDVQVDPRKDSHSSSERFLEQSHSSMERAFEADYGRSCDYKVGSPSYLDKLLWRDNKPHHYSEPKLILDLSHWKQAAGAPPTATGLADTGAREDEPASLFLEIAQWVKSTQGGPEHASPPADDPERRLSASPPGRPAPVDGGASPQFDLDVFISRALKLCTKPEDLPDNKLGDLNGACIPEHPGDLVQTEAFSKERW
UniProt Q9BUB5: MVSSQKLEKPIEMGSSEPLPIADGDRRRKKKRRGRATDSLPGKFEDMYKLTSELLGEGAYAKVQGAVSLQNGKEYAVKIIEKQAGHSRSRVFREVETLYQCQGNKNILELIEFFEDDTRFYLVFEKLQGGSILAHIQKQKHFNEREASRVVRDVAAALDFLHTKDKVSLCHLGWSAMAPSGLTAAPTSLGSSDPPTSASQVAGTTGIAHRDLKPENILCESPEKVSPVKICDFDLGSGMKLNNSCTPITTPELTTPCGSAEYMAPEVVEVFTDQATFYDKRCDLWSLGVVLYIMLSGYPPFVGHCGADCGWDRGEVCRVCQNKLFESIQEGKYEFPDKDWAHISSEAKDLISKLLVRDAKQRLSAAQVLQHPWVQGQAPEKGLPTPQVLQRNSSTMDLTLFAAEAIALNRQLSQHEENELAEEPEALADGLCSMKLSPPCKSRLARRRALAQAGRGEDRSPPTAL
UniProt Q16288, whole entry, looked up: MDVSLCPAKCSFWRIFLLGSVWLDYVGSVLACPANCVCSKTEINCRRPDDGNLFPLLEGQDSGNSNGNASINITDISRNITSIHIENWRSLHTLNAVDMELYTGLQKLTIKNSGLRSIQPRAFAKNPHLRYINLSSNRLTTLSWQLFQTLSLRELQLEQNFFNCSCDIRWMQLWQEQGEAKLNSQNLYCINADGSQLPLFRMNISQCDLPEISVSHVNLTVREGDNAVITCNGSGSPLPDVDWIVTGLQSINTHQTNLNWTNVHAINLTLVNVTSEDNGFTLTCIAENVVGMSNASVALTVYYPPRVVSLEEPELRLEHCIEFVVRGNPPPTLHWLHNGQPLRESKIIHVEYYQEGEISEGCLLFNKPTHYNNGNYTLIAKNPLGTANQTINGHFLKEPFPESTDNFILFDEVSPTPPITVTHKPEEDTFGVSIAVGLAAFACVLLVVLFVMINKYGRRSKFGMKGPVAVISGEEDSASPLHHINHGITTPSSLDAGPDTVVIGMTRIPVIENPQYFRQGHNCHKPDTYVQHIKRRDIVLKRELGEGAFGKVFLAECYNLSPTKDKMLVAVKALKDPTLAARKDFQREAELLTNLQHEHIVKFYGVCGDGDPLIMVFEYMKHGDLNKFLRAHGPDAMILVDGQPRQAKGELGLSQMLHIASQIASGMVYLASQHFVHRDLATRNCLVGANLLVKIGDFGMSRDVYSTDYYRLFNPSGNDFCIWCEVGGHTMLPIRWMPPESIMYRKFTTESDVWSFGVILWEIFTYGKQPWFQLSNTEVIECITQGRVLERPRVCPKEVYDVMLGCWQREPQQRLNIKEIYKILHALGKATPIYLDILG
UniProt O96013: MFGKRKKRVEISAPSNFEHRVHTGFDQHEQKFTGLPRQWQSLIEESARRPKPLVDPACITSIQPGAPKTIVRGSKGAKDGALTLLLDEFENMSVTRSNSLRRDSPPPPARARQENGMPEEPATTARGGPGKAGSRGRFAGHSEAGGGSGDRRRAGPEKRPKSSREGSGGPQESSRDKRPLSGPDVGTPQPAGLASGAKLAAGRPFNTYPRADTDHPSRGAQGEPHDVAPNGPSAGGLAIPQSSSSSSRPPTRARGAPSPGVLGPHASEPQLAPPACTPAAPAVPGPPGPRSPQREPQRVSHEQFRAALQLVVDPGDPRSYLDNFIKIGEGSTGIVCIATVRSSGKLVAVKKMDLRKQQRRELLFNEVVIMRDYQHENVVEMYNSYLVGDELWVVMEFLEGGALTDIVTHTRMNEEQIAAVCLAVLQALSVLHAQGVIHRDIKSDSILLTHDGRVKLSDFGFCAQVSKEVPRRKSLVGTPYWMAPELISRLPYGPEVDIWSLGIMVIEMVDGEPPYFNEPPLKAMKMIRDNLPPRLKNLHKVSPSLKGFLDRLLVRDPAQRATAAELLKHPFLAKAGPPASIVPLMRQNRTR
UniProt Q15118, whole entry, looked up: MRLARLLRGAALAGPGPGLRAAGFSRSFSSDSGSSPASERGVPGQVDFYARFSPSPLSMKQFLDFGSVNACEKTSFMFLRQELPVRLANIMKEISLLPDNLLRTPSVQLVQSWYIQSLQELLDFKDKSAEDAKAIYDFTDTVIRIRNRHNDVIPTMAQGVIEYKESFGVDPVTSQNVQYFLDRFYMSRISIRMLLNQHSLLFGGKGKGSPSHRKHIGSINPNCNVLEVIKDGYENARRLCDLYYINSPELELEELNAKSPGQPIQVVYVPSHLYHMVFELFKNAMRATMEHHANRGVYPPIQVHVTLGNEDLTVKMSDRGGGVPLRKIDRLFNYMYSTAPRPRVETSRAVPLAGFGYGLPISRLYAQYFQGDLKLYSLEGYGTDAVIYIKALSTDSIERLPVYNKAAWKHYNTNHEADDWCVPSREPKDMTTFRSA
UniProt O15530: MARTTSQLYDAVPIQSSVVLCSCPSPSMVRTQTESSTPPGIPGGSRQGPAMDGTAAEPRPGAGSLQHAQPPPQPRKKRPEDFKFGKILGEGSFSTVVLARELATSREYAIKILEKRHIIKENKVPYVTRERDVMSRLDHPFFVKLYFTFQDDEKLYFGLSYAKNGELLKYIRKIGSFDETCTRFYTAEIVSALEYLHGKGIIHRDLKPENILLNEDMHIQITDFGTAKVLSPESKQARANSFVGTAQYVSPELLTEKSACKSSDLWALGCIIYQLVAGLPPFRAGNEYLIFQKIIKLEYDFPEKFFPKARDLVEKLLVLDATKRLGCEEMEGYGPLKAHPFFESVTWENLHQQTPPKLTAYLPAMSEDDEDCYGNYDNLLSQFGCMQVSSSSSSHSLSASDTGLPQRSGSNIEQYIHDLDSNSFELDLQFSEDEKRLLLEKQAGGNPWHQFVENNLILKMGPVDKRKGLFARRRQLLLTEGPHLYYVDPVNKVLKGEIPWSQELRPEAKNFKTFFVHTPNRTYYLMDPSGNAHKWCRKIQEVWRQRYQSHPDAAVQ
UniProt Q9UBF8: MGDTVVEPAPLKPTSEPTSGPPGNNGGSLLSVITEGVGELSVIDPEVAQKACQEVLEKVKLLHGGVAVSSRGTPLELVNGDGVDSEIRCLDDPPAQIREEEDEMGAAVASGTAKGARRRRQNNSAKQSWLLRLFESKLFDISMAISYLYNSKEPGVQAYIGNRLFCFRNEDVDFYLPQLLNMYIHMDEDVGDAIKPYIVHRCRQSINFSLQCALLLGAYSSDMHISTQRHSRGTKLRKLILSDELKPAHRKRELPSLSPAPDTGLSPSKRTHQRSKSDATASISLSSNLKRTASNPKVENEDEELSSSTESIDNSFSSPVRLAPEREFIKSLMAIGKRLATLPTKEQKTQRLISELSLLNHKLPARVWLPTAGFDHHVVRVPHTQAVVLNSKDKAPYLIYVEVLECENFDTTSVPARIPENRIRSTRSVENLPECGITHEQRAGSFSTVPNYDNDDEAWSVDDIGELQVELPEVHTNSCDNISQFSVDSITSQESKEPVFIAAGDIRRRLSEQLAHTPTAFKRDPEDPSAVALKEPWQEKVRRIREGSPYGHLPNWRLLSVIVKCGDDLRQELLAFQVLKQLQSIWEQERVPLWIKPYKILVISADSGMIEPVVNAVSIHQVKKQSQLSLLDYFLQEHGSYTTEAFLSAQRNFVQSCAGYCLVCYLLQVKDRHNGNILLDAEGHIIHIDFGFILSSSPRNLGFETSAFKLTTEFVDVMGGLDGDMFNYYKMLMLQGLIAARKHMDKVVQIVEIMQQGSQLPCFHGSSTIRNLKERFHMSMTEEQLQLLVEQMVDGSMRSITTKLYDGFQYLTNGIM
UniProt P53350, whole entry: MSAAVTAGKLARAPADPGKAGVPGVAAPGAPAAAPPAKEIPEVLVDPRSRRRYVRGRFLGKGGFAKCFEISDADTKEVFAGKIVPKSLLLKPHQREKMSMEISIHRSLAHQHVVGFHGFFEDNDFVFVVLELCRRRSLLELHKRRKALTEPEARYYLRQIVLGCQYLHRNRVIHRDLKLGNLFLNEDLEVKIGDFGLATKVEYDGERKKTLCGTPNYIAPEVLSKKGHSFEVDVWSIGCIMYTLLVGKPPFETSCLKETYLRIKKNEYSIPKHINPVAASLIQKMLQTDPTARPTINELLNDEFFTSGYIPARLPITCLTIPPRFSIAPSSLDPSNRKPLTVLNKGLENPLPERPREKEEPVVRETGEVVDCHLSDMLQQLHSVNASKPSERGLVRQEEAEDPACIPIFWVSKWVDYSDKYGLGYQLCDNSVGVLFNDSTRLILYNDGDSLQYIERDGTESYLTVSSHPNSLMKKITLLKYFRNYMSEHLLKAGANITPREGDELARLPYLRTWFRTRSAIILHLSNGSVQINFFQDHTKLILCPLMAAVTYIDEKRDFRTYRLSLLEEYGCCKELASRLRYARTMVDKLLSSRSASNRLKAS
UniProt Q13131: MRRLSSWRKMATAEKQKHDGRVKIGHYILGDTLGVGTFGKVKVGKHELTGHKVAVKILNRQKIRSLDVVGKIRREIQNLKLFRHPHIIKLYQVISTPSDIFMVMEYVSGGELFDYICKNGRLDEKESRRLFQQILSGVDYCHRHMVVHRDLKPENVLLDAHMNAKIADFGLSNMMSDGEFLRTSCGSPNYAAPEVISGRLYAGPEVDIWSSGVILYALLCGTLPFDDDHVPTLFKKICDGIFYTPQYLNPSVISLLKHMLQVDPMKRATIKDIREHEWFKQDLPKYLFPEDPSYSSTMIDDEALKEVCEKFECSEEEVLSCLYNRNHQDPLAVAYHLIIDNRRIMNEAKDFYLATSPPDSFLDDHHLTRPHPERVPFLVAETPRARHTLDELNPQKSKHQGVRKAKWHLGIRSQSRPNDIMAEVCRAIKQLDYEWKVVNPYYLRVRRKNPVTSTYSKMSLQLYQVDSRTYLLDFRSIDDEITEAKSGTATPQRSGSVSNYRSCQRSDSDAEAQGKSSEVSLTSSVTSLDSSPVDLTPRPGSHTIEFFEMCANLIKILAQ
UniProt Q05397, whole entry, looked up: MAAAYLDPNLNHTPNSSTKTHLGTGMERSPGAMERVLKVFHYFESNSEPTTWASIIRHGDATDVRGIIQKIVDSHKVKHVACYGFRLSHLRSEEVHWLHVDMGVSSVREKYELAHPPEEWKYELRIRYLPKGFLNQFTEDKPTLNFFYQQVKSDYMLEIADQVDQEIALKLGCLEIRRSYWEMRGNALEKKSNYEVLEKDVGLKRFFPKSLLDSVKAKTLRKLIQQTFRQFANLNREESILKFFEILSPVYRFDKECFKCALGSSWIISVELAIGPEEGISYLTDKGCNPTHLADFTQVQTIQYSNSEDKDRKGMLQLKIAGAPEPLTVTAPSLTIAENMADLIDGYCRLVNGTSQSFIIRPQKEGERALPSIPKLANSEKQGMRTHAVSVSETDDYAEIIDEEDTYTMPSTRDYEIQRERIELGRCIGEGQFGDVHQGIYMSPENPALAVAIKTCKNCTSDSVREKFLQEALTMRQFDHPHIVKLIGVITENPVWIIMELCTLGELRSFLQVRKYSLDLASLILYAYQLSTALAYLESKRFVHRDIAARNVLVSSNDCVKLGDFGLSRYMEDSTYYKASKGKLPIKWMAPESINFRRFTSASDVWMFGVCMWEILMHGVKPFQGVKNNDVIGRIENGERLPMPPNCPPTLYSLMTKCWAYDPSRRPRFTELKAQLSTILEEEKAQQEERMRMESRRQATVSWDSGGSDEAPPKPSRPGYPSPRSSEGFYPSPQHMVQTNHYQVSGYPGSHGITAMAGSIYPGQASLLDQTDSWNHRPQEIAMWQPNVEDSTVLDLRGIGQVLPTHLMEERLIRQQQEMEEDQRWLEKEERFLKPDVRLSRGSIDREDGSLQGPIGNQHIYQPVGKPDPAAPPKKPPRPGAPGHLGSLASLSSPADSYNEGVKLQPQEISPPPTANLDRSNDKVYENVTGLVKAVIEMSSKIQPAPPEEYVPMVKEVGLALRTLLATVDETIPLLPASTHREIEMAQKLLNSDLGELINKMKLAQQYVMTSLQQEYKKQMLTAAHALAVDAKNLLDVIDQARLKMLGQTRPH

Tests used:
Experiment in all cases: kinase-Nluc reporter destabilization hit call (1 = scored as downregulated) (binary); higher = compound decreases kinase abundance
Conditions in all cases: K562, 2-18 h
MAPK1 = MAPK1 (UniProt P28482)
MAPK4 = MAPK4 (UniProt P31152)
MAPKAPK2 = MAPKAPK2 (UniProt P49137)
MKNK1 = MKNK1 (UniProt Q9BUB5)
NTRK2 = NTRK2 (UniProt Q16620)
NTRK3 = NTRK3 (UniProt Q16288)
PAK4 = PAK4 (UniProt O96013)
PBK = PBK (UniProt Q96KB5)
PDGFRB = PDGFRB (UniProt P09619)
PDK1 = PDK1 (UniProt Q15118)
PDPK1 = PDPK1 (UniProt O15530)
PIK4CA = PIK4CA (UniProt P42356)
PIK4CB = PIK4CB (UniProt Q9UBF8)
PLK1 = PLK1 (UniProt P53350)
PRKAA1 = PRKAA1 (UniProt Q13131)
PRKCA = PRKCA (UniProt P17252)
PTK2 = PTK2 (UniProt Q05397)
PTK2B = PTK2B (UniProt Q14289)
RAF1 = RAF1 (UniProt P04049)
[1] = target: RAF1_S257L (clone: RAF1_mut) (UniProt P04049)

Measured: kinase-Nluc reporter destabilization hit call

O=C(O)c1ccc2c(c1)nc(Nc1cccc(Cl)c1)c1ccncc12 [Silmitasertib (sodium salt)]
inactive: MAPK1; 10 µM 0 | MAPK4; 10 µM 0 | MAPKAPK2; 10 µM 0 | MKNK1; 10 µM 0 | NTRK2; 10 µM 0 | NTRK3; 10 µM 0 | PAK4; 10 µM 0 | PBK; 10 µM 0 | PDGFRB; 10 µM 0 | PDK1; 10 µM 0 | PDPK1; 10 µM 0 | PIK4CA; 10 µM 0 | PIK4CB; 10 µM 0 | PLK1; 10 µM 0 | PRKAA1; 10 µM 0 | PRKCA; 10 µM 0 | PTK2; 10 µM 0 | PTK2B; 10 µM 0 | RAF1; 10 µM 0 | [1]; 10 µM 0

CCS(=O)(=O)N1CCN(c2ccc(Nc3ncc(C(N)=O)c(NC4CC4)n3)cc2)CC1 [Cerdulatinib (hydrochloride)]
inactive: MAPK1; 10 µM 0 | MAPK4; 10 µM 0 | MAPKAPK2; 10 µM 0 | MKNK1; 10 µM 0 | NTRK2; 10 µM 0 | NTRK3; 10 µM 0 | PAK4; 10 µM 0 | PBK; 10 µM 0 | PDGFRB; 10 µM 0 | PDK1; 10 µM 0 | PDPK1; 10 µM 0 | PIK4CA; 10 µM 0 | PIK4CB; 10 µM 0 | PLK1; 10 µM 0 | PRKAA1; 10 µM 0 | PRKCA; 10 µM 0 | PTK2; 10 µM 0 | PTK2B; 10 µM 0 | RAF1; 10 µM 0 | [1]; 10 µM 0

FC(F)(F)c1ccc(CNc2ccc(Cc3c[nH]c4ncc(Cl)cc34)cn2)cn1 [Pexidartinib]
inactive: MAPK1; 10 µM 0 | MAPK4; 10 µM 0 | MAPKAPK2; 10 µM 0 | MKNK1; 10 µM 0 | NTRK2; 10 µM 0 | NTRK3; 10 µM 0 | PAK4; 10 µM 0 | PBK; 10 µM 0 | PDGFRB; 10 µM 0 | PDK1; 10 µM 0 | PDPK1; 10 µM 0 | PIK4CA; 10 µM 0 | PIK4CB; 10 µM 0 | PLK1; 10 µM 0 | PRKAA1; 10 µM 0 | PRKCA; 10 µM 0 | PTK2; 10 µM 0 | PTK2B; 10 µM 0 | RAF1; 10 µM 0 | [1]; 10 µM 0

CCCCCCCCc1ccc(CCC(N)(CO)CO)cc1 [Fingolimod]
inactive: MAPK1; 2.5 µM 0 | MAPK4; 2.5 µM 0 | MAPKAPK2; 2.5 µM 0 | MKNK1; 2.5 µM 0 | NTRK2; 2.5 µM 0 | NTRK3; 2.5 µM 0 | PAK4; 2.5 µM 0 | PBK; 2.5 µM 0 | PDGFRB; 2.5 µM 0 | PDK1; 2.5 µM 0 | PDPK1; 2.5 µM 0 | PIK4CA; 2.5 µM 0 | PIK4CB; 2.5 µM 0 | PLK1; 2.5 µM 0 | PRKAA1; 2.5 µM 0 | PRKCA; 2.5 µM 0 | PTK2; 2.5 µM 0 | PTK2B; 2.5 µM 0 | RAF1; 2.5 µM 0 | [1]; 2.5 µM 0

N=C(N)NC(=O)c1nc(Cl)c(N)nc1N [Amiloride (hydrochloride)]
inactive: MAPK1; 10 µM 0 | MAPK4; 10 µM 0 | MAPKAPK2; 10 µM 0 | MKNK1; 10 µM 0 | NTRK2; 10 µM 0 | NTRK3; 10 µM 0 | PAK4; 10 µM 0 | PBK; 10 µM 0 | PDGFRB; 10 µM 0 | PDK1; 10 µM 0 | PDPK1; 10 µM 0 | PIK4CA; 10 µM 0 | PIK4CB; 10 µM 0 | PLK1; 10 µM 0 | PRKAA1; 10 µM 0 | PRKCA; 10 µM 0 | PTK2; 10 µM 0 | PTK2B; 10 µM 0 | RAF1; 10 µM 0 | [1]; 10 µM 0

CN(C)C(=N)NC(=N)N [Metformin (hydrochloride)]
inactive: MAPK1; 10 µM 0 | MAPK4; 10 µM 0 | MAPKAPK2; 10 µM 0 | MKNK1; 10 µM 0 | NTRK2; 10 µM 0 | NTRK3; 10 µM 0 | PAK4; 10 µM 0 | PBK; 10 µM 0 | PDGFRB; 10 µM 0 | PDK1; 10 µM 0 | PDPK1; 10 µM 0 | PIK4CA; 10 µM 0 | PIK4CB; 10 µM 0 | PLK1; 10 µM 0 | PRKAA1; 10 µM 0 | PRKCA; 10 µM 0 | PTK2; 10 µM 0 | PTK2B; 10 µM 0 | RAF1; 10 µM 0 | [1]; 10 µM 0

C[C@@H](N)c1ccc(C(=O)Nc2ccnc3[nH]ccc23)cc1
inactive: MAPK1; 10 µM 0 | MAPK4; 10 µM 0 | MAPKAPK2; 10 µM 0 | MKNK1; 10 µM 0 | NTRK2; 10 µM 0 | NTRK3; 10 µM 0 | PAK4; 10 µM 0 | PBK; 10 µM 0 | PDGFRB; 10 µM 0 | PDK1; 10 µM 0 | PDPK1; 10 µM 0 | PIK4CA; 10 µM 0 | PIK4CB; 10 µM 0 | PLK1; 10 µM 0 | PRKAA1; 10 µM 0 | PRKCA; 10 µM 0 | PTK2; 10 µM 0 | PTK2B; 10 µM 0 | RAF1; 10 µM 0 | [1]; 10 µM 0

C=CC(=O)Nc1cc(Nc2nccc(-c3cn(C4CC4)c4ccccc34)n2)c(OC)cc1N(C)CCN(C)C [Almonertinib]
inactive: MAPK1; 2.5 µM 0 | MAPK4; 2.5 µM 0 | MAPKAPK2; 2.5 µM 0 | MKNK1; 2.5 µM 0 | NTRK2; 2.5 µM 0 | NTRK3; 2.5 µM 0 | PAK4; 2.5 µM 0 | PBK; 2.5 µM 0 | PDGFRB; 2.5 µM 0 | PDK1; 2.5 µM 0 | PDPK1; 2.5 µM 0 | PIK4CA; 2.5 µM 0 | PIK4CB; 2.5 µM 0 | PLK1; 2.5 µM 0 | PRKAA1; 2.5 µM 0 | PRKCA; 2.5 µM 0 | PTK2; 2.5 µM 0 | PTK2B; 2.5 µM 0 | RAF1; 2.5 µM 0 | [1]; 2.5 µM 0

Among those listed so far, two contain an NH in an aromatic ring.
FC(F)(F)c1ccc(CNc2ccc(Cc3c[nH]c4ncc(Cl)cc34)cn2)cn1 [Pexidartinib]
inactive: MAPK1; 10 µM 0 | MAPK4; 10 µM 0 | MAPKAPK2; 10 µM 0 | MKNK1; 10 µM 0 | NTRK2; 10 µM 0 | NTRK3; 10 µM 0 | PAK4; 10 µM 0 | PBK; 10 µM 0 | PDGFRB; 10 µM 0 | PDK1; 10 µM 0 | PDPK1; 10 µM 0 | PIK4CA; 10 µM 0 | PIK4CB; 10 µM 0 | PLK1; 10 µM 0 | PRKAA1; 10 µM 0 | PRKCA; 10 µM 0 | PTK2; 10 µM 0 | PTK2B; 10 µM 0 | RAF1; 10 µM 0 | [1]; 10 µM 0

C[C@@H](N)c1ccc(C(=O)Nc2ccnc3[nH]ccc23)cc1
inactive: MAPK1; 10 µM 0 | MAPK4; 10 µM 0 | MAPKAPK2; 10 µM 0 | MKNK1; 10 µM 0 | NTRK2; 10 µM 0 | NTRK3; 10 µM 0 | PAK4; 10 µM 0 | PBK; 10 µM 0 | PDGFRB; 10 µM 0 | PDK1; 10 µM 0 | PDPK1; 10 µM 0 | PIK4CA; 10 µM 0 | PIK4CB; 10 µM 0 | PLK1; 10 µM 0 | PRKAA1; 10 µM 0 | PRKCA; 10 µM 0 | PTK2; 10 µM 0 | PTK2B; 10 µM 0 | RAF1; 10 µM 0 | [1]; 10 µM 0

Going on with the list.

C[S+]([O-])c1ccc(-c2nc(-c3ccc(F)cc3)c(-c3ccncc3)[nH]2)cc1 (stereo not given)
inactive: MAPK1; 10 µM 0 | MAPK4; 10 µM 0 | MAPKAPK2; 10 µM 0 | MKNK1; 10 µM 0 | NTRK2; 10 µM 0 | NTRK3; 10 µM 0 | PAK4; 10 µM 0 | PBK; 10 µM 0 | PDGFRB; 10 µM 0 | PDK1; 10 µM 0 | PDPK1; 10 µM 0 | PIK4CA; 10 µM 0 | PIK4CB; 10 µM 0 | PLK1; 10 µM 0 | PRKAA1; 10 µM 0 | PRKCA; 10 µM 0 | PTK2; 10 µM 0 | PTK2B; 10 µM 0 | RAF1; 10 µM 0 | [1]; 10 µM 0
